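293T-iDUX4 cells carrying a ZSCAN4-driven Gaussia luciferase and a tet-on Italica luciferase control; the gap between the two luminescence signals is read after 24 h.
The test concentration is not given here.
Percent difference between the Gaussia and Italica channels; more negative values mean more selective suppression of the DUX4 reporter, and higher values mean less activity.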

Values are in %.
How 0% and 100% were set is not given here.
Common to all entries: measured here: selective DUX4 reporter inhibition.
This is a side read-out of the assay, for part of the compounds, not drawn at random.

- COc1ccccc1CNC(=O)C[C@H]1C[C@H]2c3cc(NC(=O)Nc4ccc(C(F)(F)F)cc4)ccc3O[C@H]2[C@H](CO)O1 | Gaussia minus Italica difference -8.744%
- COc1ccccc1C#Cc1ccc([C@@H]2[C@@H](CO)N3CCCCN(C(=O)C4CCC4)C[C@@H]23)cc1 | Gaussia minus Italica difference -11.81%
- COc1ccc2c3c([nH]c2c1)[C@@H](CO)N(Cc1ccc(F)cc1)CC31CN(Cc2ccccn2)C1 | Gaussia minus Italica difference -20.02%
- O=C1CN(S(=O)(=O)Cc2ccccc2)C[C@H]2[C@H](c3ccc(C#Cc4ccccc4)cc3)[C@@H](CO)N12 | Gaussia minus Italica difference -2.79%
- O=C(Cc1ccccn1)N1CC2(C1)[C@@H](c1ccccc1)[C@@H](CO)N2Cc1ccccn1 | Gaussia minus Italica difference -5.096%
- OC[C@H]1[C@H](c2ccc(C#Cc3cccnc3)cc2)[C@H]2CN(Cc3ccccc3F)CCCCN21 | Gaussia minus Italica difference -22.81%
- COc1ccc2c3c([nH]c2c1)[C@H](CO)N(C(=O)CN(C)C)CC31CN(Cc2ccccc2Cl)C1 | Gaussia minus Italica difference 13.33%
- COc1ccccc1CNC(=O)C[C@@H]1CC[C@@H]2[C@H](COC[C@@H](O)CN2C(=O)Nc2ccc(C(F)(F)F)cc2)O1 | Gaussia minus Italica difference 3.596%
- COc1ccccc1-c1ccc2c(c1)[C@H]1[C@H](CCN1Cc1ccccc1F)[C@@H](CO)N2 | Gaussia minus Italica difference -13.35%
- COc1ccc2c3c([nH]c2c1)[C@@H](CO)N(Cc1ccc(Cl)cc1)CC31CN(Cc2nccs2)C1 | Gaussia minus Italica difference -9.98%
- O=C(C[C@H]1C[C@@H]2c3cc(NC(=O)C4CCOCC4)ccc3O[C@@H]2[C@H](CO)O1)NCc1ccc(Oc2ccccc2)cc1 | Gaussia minus Italica difference -7.873%
- CCCNC(=O)N1[C@H](CO)[C@@H](c2ccccc2-c2ccc(F)cc2)[C@@H]1C#N | Gaussia minus Italica difference -3.588%
- CS(=O)(=O)N1CC(=O)N2[C@H](CO)[C@H](c3ccc(C#CCc4ccccc4)cc3)[C@@H]2C1 | Gaussia minus Italica difference -17.07%
- COCC(=O)N1CC[C@@H]2[C@H]1c1cc(-c3cccc(C(=O)N(C)C)c3)ccc1N[C@@H]2CO | Gaussia minus Italica difference -14.15%
- O=S(=O)(c1cccc(F)c1)N1CC[C@@H]2[C@H](CO)Nc3ccc(C#Cc4cccc(F)c4)cc3[C@@H]21 | Gaussia minus Italica difference -10.3%
- C[C@H](CO)N1C[C@H](C)[C@H](CN(C)S(=O)(=O)c2ccc(Cl)cc2)OCc2ccccc2-c2ccccc2C1=O | Gaussia minus Italica difference 1.709%
- O=C(NC1CCCCC1)N1C[C@@H]2N[C@H](C1)C2c1ccc(-c2ccc(F)cc2)cc1 (stereo not given in full) | Gaussia minus Italica difference 14.26%
- COc1cccc(S(=O)(=O)N2CCCCN3[C@H](C2)[C@@H](c2ccc(C#CC4CC4)cc2)[C@@H]3CO)c1 | Gaussia minus Italica difference -2.054%
- O=C(C[C@H]1C[C@@H]2c3cc(NC(=O)c4ccc5c(c4)OCO5)ccc3O[C@@H]2[C@@H](CO)O1)NCC(F)(F)F | Gaussia minus Italica difference -2.963%
- COc1cccc(S(=O)(=O)N2CCCCN3[C@H](CO)[C@H](c4ccc(C5=CCCCC5)cc4)[C@H]3C2)c1 | Gaussia minus Italica difference 7.181%

For reference, 2 entries once more:

* CCCNC(=O)N1[C@H](CO)[C@@H](c2ccccc2-c2ccc(F)cc2)[C@@H]1C#N | Gaussia minus Italica difference -3.588%
* CS(=O)(=O)N1CC(=O)N2[C@H](CO)[C@H](c3ccc(C#CCc4ccccc4)cc3)[C@@H]2C1 | Gaussia minus Italica difference -17.07%

Data taken from PubChem BioAssay AID1224904, deposited by Broad Institute (2016).